No constants are given. Whether binding was seen depends on the method and setting. In cells and extracts the contact can be indirect. Some entries that bind do so weakly or less than the wild type.
Biological target: LIM domain and actin binding 1 (LIMA1) (human (endogenous in Huh7)) (UniProt Q9UHB6)
Assay: co-IP; endogenous proteins of Huh7 cells lysed with NP-40 and 1% PMSF; Pierce Magnetic IP/Co-IP Kit; western blotting

By UniProt entry, the sequences of proteins in these tests, tags left out.
UniProt Q9UHB6: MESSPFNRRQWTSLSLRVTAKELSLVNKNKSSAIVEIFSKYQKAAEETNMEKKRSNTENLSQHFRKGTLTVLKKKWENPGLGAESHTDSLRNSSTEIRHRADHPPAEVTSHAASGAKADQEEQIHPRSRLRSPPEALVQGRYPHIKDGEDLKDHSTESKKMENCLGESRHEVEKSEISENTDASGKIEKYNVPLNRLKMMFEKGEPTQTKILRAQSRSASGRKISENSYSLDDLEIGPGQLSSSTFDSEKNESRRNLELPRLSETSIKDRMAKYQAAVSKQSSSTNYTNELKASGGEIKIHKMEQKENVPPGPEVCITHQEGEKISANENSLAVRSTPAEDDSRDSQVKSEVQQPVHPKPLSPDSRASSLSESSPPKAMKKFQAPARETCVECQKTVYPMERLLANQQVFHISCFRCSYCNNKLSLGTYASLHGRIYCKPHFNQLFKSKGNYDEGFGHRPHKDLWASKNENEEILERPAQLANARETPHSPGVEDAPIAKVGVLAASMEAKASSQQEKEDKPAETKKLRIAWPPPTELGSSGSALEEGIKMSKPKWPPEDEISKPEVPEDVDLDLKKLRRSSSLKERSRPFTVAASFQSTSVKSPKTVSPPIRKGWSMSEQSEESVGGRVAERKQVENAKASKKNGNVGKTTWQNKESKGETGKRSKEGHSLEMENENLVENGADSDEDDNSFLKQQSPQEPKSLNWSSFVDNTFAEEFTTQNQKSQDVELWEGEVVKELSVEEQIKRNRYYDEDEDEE
UniProt P35226: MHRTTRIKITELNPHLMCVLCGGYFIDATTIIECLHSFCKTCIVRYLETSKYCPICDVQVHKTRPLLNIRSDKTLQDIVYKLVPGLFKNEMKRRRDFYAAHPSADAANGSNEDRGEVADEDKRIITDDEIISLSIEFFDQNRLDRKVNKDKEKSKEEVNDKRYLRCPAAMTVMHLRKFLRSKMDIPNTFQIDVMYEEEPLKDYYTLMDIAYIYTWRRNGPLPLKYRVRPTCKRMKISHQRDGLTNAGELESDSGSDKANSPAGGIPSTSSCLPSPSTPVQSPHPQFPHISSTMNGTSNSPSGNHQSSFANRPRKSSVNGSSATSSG
UniProt P16591: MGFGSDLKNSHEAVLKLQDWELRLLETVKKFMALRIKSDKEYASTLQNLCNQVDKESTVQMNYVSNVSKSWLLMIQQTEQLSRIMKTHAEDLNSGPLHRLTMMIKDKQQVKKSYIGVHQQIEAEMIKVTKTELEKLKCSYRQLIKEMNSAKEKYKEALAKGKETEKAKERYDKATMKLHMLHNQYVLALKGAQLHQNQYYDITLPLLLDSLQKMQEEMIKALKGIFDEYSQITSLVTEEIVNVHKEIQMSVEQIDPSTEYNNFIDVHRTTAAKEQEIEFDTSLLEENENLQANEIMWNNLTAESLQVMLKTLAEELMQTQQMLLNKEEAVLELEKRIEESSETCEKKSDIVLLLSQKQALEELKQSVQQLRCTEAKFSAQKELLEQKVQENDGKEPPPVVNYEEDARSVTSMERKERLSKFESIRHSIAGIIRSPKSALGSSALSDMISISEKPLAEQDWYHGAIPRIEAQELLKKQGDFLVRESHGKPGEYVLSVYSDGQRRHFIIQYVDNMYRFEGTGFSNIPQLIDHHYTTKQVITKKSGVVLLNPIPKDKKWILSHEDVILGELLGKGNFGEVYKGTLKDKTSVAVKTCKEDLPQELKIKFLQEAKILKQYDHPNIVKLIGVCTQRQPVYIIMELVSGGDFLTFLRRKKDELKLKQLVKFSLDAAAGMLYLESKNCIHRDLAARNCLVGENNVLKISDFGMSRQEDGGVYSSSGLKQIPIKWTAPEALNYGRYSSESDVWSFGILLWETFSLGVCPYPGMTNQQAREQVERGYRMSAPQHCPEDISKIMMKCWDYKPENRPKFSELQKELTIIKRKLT

| binding | Substance |
| --- | --- |
| binds | BMI1, polycomb ring finger protein (from UniProt P35226 1-326) |
| no binding | FER (from UniProt P16591 1-822) |

Source: paper PMC9740131
